Assay results from publication PMC5752445, “Secretory leukocyte protease inhibitor (SLPI) as a potential target for inhibiting metastasis of triple-negative breast cancers” (Oncotarget, 2017).
These are yes or no findings as the source states them, for the method shown. For some assays here: In cells and extracts the contact can be indirect. Some results given as binding are weak or reduced against the parent protein; the word gives no strength. For some assays here: Tags and fused reporters may be left off the sequences shown. Blank lines part the entries; values can stand above or below the molecule they belong to.

Tests used:
[1] = molecular target: T1, Retinoblastoma tumor suppressor protein (Rb), endogenous (human (endogenous in MDA-MB-231 and HEK293T)) (UniProt P06400); experiment: co-IP; endogenous proteins in total cell lysates of MDA-MB-231 and HEK293T; lysis buffer Tris-HCl 50 mM pH 7.4, NaCl 150 mM, NP-40 1%, SDS 0.1%, Na-deoxycholate 0.5%, EDTA 1 mM; lysates pre-cleared with IgG; anti-RB or anti-SLPI antibodies on Sepharose-A beads, both directions; control IgG
T1 sequence: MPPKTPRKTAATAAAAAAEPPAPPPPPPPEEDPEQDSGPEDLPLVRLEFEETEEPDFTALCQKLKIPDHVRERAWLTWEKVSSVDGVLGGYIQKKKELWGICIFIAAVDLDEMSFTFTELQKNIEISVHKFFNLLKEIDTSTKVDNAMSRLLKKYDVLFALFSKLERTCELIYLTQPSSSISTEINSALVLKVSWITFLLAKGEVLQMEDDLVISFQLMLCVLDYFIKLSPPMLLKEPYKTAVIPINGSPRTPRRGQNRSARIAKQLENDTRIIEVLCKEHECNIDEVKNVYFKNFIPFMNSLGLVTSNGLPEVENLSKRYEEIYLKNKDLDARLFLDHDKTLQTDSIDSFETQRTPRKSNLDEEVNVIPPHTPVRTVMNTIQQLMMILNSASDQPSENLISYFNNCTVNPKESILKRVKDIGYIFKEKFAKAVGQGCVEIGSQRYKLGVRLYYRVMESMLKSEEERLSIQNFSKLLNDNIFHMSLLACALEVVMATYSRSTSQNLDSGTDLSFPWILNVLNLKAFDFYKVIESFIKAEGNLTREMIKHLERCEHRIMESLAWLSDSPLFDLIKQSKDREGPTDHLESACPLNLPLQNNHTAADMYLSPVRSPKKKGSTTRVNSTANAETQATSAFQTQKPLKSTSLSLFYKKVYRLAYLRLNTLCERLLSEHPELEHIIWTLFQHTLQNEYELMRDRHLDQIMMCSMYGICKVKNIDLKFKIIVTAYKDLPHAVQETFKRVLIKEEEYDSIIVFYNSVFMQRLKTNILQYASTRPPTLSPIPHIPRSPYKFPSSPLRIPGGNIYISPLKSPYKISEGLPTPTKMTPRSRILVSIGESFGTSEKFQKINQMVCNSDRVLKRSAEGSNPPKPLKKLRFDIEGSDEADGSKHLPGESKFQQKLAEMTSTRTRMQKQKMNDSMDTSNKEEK

[2] = molecular target: T2, VP16-FoxM1 fusion protein (pACT-FoxM1) (UniProt Q08050); experiment: two-hybrid; mammalian two-hybrid in HEK293T: pBIND (GAL4 DNA-binding domain) and pACT (VP16 activation domain) fusions with pG5luc reporter; luciferase read 48 h after transfection; negative controls pBIND and pACT vectors
T2 sequence: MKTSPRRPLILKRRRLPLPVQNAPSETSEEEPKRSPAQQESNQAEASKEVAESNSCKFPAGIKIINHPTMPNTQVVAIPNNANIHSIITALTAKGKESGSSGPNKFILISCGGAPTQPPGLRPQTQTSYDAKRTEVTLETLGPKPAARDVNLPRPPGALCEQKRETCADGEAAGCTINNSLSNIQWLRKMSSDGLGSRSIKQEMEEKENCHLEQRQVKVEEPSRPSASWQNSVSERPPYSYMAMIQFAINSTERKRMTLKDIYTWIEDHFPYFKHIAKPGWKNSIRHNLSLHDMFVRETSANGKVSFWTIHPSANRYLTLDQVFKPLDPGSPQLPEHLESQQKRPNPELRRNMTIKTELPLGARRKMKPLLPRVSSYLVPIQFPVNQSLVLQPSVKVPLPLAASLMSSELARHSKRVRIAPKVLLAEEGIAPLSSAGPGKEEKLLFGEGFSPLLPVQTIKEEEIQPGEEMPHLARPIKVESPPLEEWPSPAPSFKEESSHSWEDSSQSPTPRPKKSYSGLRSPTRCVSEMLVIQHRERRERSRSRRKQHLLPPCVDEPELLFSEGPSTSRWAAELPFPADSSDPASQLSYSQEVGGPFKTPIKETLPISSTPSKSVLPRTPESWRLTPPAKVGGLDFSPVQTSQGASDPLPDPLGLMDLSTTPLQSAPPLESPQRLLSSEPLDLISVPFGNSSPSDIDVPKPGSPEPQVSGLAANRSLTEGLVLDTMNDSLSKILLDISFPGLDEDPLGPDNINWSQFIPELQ

[3] = molecular target: T3, GAL4-Rb fusion protein (pBIND-Rb) (UniProt P06400); experiment: two-hybrid; mammalian two-hybrid in HEK293T with pBIND-Rb and pACT-FoxM1; recombinant SLPI added to the cell medium at 1.5 µg/mL, reporter followed over time
T3 sequence: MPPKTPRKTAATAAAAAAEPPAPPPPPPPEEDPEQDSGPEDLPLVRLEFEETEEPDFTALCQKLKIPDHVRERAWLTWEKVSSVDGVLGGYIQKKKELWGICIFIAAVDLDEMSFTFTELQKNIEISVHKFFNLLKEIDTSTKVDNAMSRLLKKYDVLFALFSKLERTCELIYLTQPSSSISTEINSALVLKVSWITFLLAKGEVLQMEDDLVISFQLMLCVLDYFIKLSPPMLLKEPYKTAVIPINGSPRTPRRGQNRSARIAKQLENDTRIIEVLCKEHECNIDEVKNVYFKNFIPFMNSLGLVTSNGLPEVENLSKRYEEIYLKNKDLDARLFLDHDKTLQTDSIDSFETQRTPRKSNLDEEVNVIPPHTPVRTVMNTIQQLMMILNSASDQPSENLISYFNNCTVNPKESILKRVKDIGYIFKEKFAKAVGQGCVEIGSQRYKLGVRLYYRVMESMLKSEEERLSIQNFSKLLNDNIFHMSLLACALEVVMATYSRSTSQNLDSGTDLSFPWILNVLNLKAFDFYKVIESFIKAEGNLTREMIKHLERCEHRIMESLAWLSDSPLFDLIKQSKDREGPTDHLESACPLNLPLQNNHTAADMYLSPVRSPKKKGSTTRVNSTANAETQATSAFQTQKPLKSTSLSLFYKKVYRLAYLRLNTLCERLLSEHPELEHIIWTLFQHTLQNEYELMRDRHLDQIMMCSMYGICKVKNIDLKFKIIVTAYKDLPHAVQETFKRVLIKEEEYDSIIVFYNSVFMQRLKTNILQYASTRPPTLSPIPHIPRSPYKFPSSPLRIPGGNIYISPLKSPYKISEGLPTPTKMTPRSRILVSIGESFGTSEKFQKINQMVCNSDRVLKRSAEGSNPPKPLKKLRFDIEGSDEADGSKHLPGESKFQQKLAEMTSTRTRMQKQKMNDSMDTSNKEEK

[4] = molecular target: T3, GAL4-Rb fusion protein (pBIND-Rb); experiment: two-hybrid; mammalian two-hybrid in HEK293T: pBIND (GAL4 DNA-binding domain) and pACT (VP16 activation domain) fusions with pG5luc reporter; luciferase read 48 h after transfection; negative controls pBIND and pACT vectors
[5] = molecular target: Secretory leukocyte protease inhibitor (SLPI), endogenous (human (endogenous in MDA-MB-231 and HEK293T)) (UniProt P03973); experiment: co-IP; endogenous proteins in total cell lysates of MDA-MB-231 and HEK293T; lysis buffer Tris-HCl 50 mM pH 7.4, NaCl 150 mM, NP-40 1%, SDS 0.1%, Na-deoxycholate 0.5%, EDTA 1 mM; lysates pre-cleared with IgG; anti-RB or anti-SLPI antibodies on Sepharose-A beads, both directions; control IgG

Molecule: Secretory leukocyte protease inhibitor (SLPI), endogenous (from UniProt P03973 26-132)
- binding [1]: binds

B3: Retinoblastoma tumor suppressor protein (Rb), endogenous (protein, UniProt P06400 1-928)
chain: MPPKTPRKTAATAAAAAAEPPAPPPPPPPEEDPEQDSGPEDLPLVRLEFEETEEPDFTALCQKLKIPDHVRERAWLTWEKVSSVDGVLGGYIQKKKELWGICIFIAAVDLDEMSFTFTELQKNIEISVHKFFNLLKEIDTSTKVDNAMSRLLKKYDVLFALFSKLERTCELIYLTQPSSSISTEINSALVLKVSWITFLLAKGEVLQMEDDLVISFQLMLCVLDYFIKLSPPMLLKEPYKTAVIPINGSPRTPRRGQNRSARIAKQLENDTRIIEVLCKEHECNIDEVKNVYFKNFIPFMNSLGLVTSNGLPEVENLSKRYEEIYLKNKDLDARLFLDHDKTLQTDSIDSFETQRTPRKSNLDEEVNVIPPHTPVRTVMNTIQQLMMILNSASDQPSENLISYFNNCTVNPKESILKRVKDIGYIFKEKFAKAVGQGCVEIGSQRYKLGVRLYYRVMESMLKSEEERLSIQNFSKLLNDNIFHMSLLACALEVVMATYSRSTSQNLDSGTDLSFPWILNVLNLKAFDFYKVIESFIKAEGNLTREMIKHLERCEHRIMESLAWLSDSPLFDLIKQSKDREGPTDHLESACPLNLPLQNNHTAADMYLSPVRSPKKKGSTTRVNSTANAETQATSAFQTQKPLKSTSLSLFYKKVYRLAYLRLNTLCERLLSEHPELEHIIWTLFQHTLQNEYELMRDRHLDQIMMCSMYGICKVKNIDLKFKIIVTAYKDLPHAVQETFKRVLIKEEEYDSIIVFYNSVFMQRLKTNILQYASTRPPTLSPIPHIPRSPYKFPSSPLRIPGGNIYISPLKSPYKISEGLPTPTKMTPRSRILVSIGESFGTSEKFQKINQMVCNSDRVLKRSAEGSNPPKPLKKLRFDIEGSDEADGSKHLPGESKFQQKLAEMTSTRTRMQKQKMNDSMDTSNKEEK
- binding [5]: binds

Results, then the molecule that gave them:

- binding [2]: no binding
B1: VP16-SLPI fusion protein (pACT-SLPI) (natural protein, UniProt P03973 1-132, looked up)
chain: MKSSGLFPFLVLLALGTLAPWAVEGSGKSFKAGVCPPKKSAQCLRYKKPECQSDWQCPGKKRCCPDTCGIKCLDPVDTPNPTRRKPGKCPVTYGQCLMLNPPNFCEMDGQCKRDLKCCMGMCGKSCVSPVKA
notes: the legend names only pACT constructs of both; source: HEK293T, transiently transfected, mammalian two-hybrid fusion

- binding [3]: binds
- binding [4]: binds
B2: VP16-FoxM1 fusion protein (pACT-FoxM1) (protein, UniProt Q08050 1-763)
chain: MKTSPRRPLILKRRRLPLPVQNAPSETSEEEPKRSPAQQESNQAEASKEVAESNSCKFPAGIKIINHPTMPNTQVVAIPNNANIHSIITALTAKGKESGSSGPNKFILISCGGAPTQPPGLRPQTQTSYDAKRTEVTLETLGPKPAARDVNLPRPPGALCEQKRETCADGEAAGCTINNSLSNIQWLRKMSSDGLGSRSIKQEMEEKENCHLEQRQVKVEEPSRPSASWQNSVSERPPYSYMAMIQFAINSTERKRMTLKDIYTWIEDHFPYFKHIAKPGWKNSIRHNLSLHDMFVRETSANGKVSFWTIHPSANRYLTLDQVFKPLDPGSPQLPEHLESQQKRPNPELRRNMTIKTELPLGARRKMKPLLPRVSSYLVPIQFPVNQSLVLQPSVKVPLPLAASLMSSELARHSKRVRIAPKVLLAEEGIAPLSSAGPGKEEKLLFGEGFSPLLPVQTIKEEEIQPGEEMPHLARPIKVESPPLEEWPSPAPSFKEESSHSWEDSSQSPTPRPKKSYSGLRSPTRCVSEMLVIQHRERRERSRSRRKQHLLPPCVDEPELLFSEGPSTSRWAAELPFPADSSDPASQLSYSQEVGGPFKTPIKETLPISSTPSKSVLPRTPESWRLTPPAKVGGLDFSPVQTSQGASDPLPDPLGLMDLSTTPLQSAPPLESPQRLLSSEPLDLISVPFGNSSPSDIDVPKPGSPEPQVSGLAANRSLTEGLVLDTMNDSLSKILLDISFPGLDEDPLGPDNINWSQFIPELQ
